Results as given in the supplement of paper PMC8728848.
This is one part of the list.

Columns and labels:
Experiment in all cases: glycan array binding signal (z-score within array); higher = stronger binding
Conditions in all cases: glycan notation: IUPAC condensed, linker removed
[1] = biological target: Gal(b1-4)GlcNAc(b1-2)Man(a1-6)[GlcNAc(b1-2)Man(a1-3)]Man(b1-4)GlcNAc(b1-4)GlcNAc
How it was run: (§1)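 The binding signal is a Z-score computed within each array and averaged over linkers. Arrays of the same protein sequence at different concentrations or buffers were also averaged together. Data originate from 3228 arrays in the Consortium for Functional Glycomics database, kept only where the protein sequence was available.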

[2] = biological target: Gal(b1-4)GlcNAc(b1-2)Man(a1-6)[Man(a1-3)]Man(b1-4)GlcNAc(b1-4)GlcNAc
How it was run: as §1

[3] = biological target: Gal(b1-4)GlcNAc(b1-2)[Gal(b1-4)GlcNAc(b1-4)]Man(a1-3)[Gal(b1-4)GlcNAc(b1-2)Man(a1-6)]Man(b1-4)GlcNAc(b1-4)GlcNAc
How it was run: as §1

[4] = biological target: Gal(b1-4)GlcNAc(b1-2)[Gal(b1-4)GlcNAc(b1-4)]Man(a1-3)[Gal(b1-4)GlcNAc(b1-2)[Gal(b1-4)GlcNAc(b1-6)]Man(a1-6)]Man(b1-4)GlcNAc(b1-4)GlcNAc
How it was run: as §1

[5] = biological target: Gal(b1-4)GlcNAc(b1-2)[Gal(b1-4)GlcNAc(b1-4)]Man(a1-3)[GlcNAc(b1-4)][Gal(b1-4)GlcNAc(b1-2)Man(a1-6)]Man(b1-4)GlcNAc(b1-4)GlcNAc
How it was run: as §1

[6] = biological target: Gal(b1-4)GlcNAc(b1-2)[Gal(b1-4)GlcNAc(b1-4)]Man(a1-3)[GlcNAc(b1-4)][Gal(b1-4)GlcNAc(b1-2)[Gal(b1-4)GlcNAc(b1-6)]Man(a1-6)]Man(b1-4)GlcNAc(b1-4)GlcNAc
How it was run: as §1

[7] = biological target: Gal(b1-4)GlcNAc(b1-2)[Gal(b1-4)GlcNAc(b1-6)]Man(a1-6)[Gal(b1-4)GlcNAc(b1-2)Man(a1-3)]Man(b1-4)GlcNAc(b1-4)GlcNAc
How it was run: as §1

[8] = biological target: Gal(b1-4)GlcNAc(b1-2)[Gal(b1-4)GlcNAc(b1-6)]Man(a1-6)[Gal(b1-4)GlcNAc(b1-2)Man(a1-3)]Man(b1-4)GlcNAc(b1-4)[Fuc(a1-6)]GlcNAc
How it was run: as §1

[9] = biological target: Gal(b1-4)GlcNAc(b1-2)[Gal(b1-4)GlcNAc(b1-6)]Man(a1-6)[GlcNAc(b1-4)][Gal(b1-4)GlcNAc(b1-2)Man(a1-3)]Man(b1-4)GlcNAc(b1-4)GlcNAc
How it was run: as §1

[10] = biological target: Gal(b1-4)GlcNAc(b1-2)[Gal(b1-4)GlcNAc(b1-6)]Man(a1-6)[GlcNAc(b1-4)][Gal(b1-4)GlcNAc(b1-2)[Gal(b1-4)GlcNAc(b1-4)]Man(a1-3)]Man(b1-4)GlcNAc(b1-4)[Fuc(a1-6)]GlcNAc
How it was run: as §1

[11] = biological target: Gal(b1-4)GlcNAc(b1-3)Gal(b1-3)GalNAc
How it was run: as §1

[12] = biological target: Gal(b1-4)GlcNAc(b1-3)Gal(b1-3)GlcNAc
How it was run: as §1

[13] = biological target: Gal(b1-4)GlcNAc(b1-3)Gal(b1-4)Glc
How it was run: as §1

[14] = biological target: Gal(b1-4)GlcNAc(b1-3)Gal(b1-4)GlcNAc
How it was run: as §1

[15] = biological target: Gal(b1-4)GlcNAc(b1-3)Gal(b1-4)GlcNAc(b1-2)Man(a1-3)[Gal(b1-4)GlcNAc(b1-3)Gal(b1-4)GlcNAc(b1-2)Man(a1-6)]Man(b1-4)GlcNAc(b1-4)GlcNAc
How it was run: as §1

[16] = biological target: Gal(b1-4)GlcNAc(b1-3)Gal(b1-4)GlcNAc(b1-2)Man(a1-3)[Gal(b1-4)GlcNAc(b1-3)Gal(b1-4)GlcNAc(b1-2)Man(a1-6)]Man(b1-4)GlcNAc(b1-4)[Fuc(a1-6)]GlcNAc
How it was run: as §1

[17] = biological target: Gal(b1-4)GlcNAc(b1-3)Gal(b1-4)GlcNAc(b1-2)[Gal(b1-4)GlcNAc(b1-3)Gal(b1-4)GlcNAc(b1-6)]Man(a1-6)[Gal(b1-4)GlcNAc(b1-3)Gal(b1-4)GlcNAc(b1-2)Man(a1-3)]Man(b1-4)GlcNAc(b1-4)GlcNAc
How it was run: as §1

[18] = biological target: Gal(b1-4)GlcNAc(b1-3)Gal(b1-4)GlcNAc(b1-2)[Gal(b1-4)GlcNAc(b1-3)Gal(b1-4)GlcNAc(b1-6)]Man(a1-6)[Gal(b1-4)GlcNAc(b1-3)Gal(b1-4)GlcNAc(b1-2)Man(a1-3)]Man(b1-4)GlcNAc(b1-4)[Fuc(a1-6)]GlcNAc
How it was run: as §1

[19] = biological target: Gal(b1-4)GlcNAc(b1-3)Gal(b1-4)GlcNAc(b1-3)Gal(b1-4)GlcNAc
How it was run: as §1

[20] = biological target: Gal(b1-4)GlcNAc(b1-3)Gal(b1-4)GlcNAc(b1-3)Gal(b1-4)GlcNAc(b1-2)Man(a1-3)[Gal(b1-4)GlcNAc(b1-3)Gal(b1-4)GlcNAc(b1-3)Gal(b1-4)GlcNAc(b1-2)Man(a1-6)]Man(b1-4)GlcNAc(b1-4)GlcNAc
How it was run: as §1

[21] = biological target: Gal(b1-4)GlcNAc(b1-3)Gal(b1-4)GlcNAc(b1-3)Gal(b1-4)GlcNAc(b1-2)Man(a1-3)[Gal(b1-4)GlcNAc(b1-3)Gal(b1-4)GlcNAc(b1-3)Gal(b1-4)GlcNAc(b1-2)Man(a1-6)]Man(b1-4)GlcNAc(b1-4)[Fuc(a1-6)]GlcNAc
How it was run: as §1

[22] = biological target: Gal(b1-4)GlcNAc(b1-3)Gal(b1-4)GlcNAc(b1-3)Gal(b1-4)GlcNAc(b1-2)[Gal(b1-4)GlcNAc(b1-3)Gal(b1-4)GlcNAc(b1-3)Gal(b1-4)GlcNAc(b1-6)]Man(a1-6)[Gal(b1-4)GlcNAc(b1-3)Gal(b1-4)GlcNAc(b1-3)Gal(b1-4)GlcNAc(b1-2)Man(a1-3)]Man(b1-4)GlcNAc(b1-4)[Fuc(a1-6)]GlcNAc
How it was run: as §1

B1: AFL6 (Aspergillus fumigatus), Q4WKJ1 (protein)
chain: MSFHLTAEDIRIEDGHRLVARLRNADGDLQDASIDLNTCLGNDNGHFQWDGVDFSHSAQDVHFAIEGGGQVPVLRAQLANQDGEFQDADVNLSERIENINGEFVFH
glycan array binding signal (z-score) [1]: -0.169
glycan array binding signal (z-score) [2]: -0.459
glycan array binding signal (z-score) [3]: 0.722
glycan array binding signal (z-score) [4]: -0.644
glycan array binding signal (z-score) [5]: 0.094
glycan array binding signal (z-score) [6]: -0.429
glycan array binding signal (z-score) [7]: -0.248
glycan array binding signal (z-score) [8]: 0.724
glycan array binding signal (z-score) [9]: -0.584
glycan array binding signal (z-score) [10]: -0.245
glycan array binding signal (z-score) [11]: -0.366
glycan array binding signal (z-score) [12]: 0.015
glycan array binding signal (z-score) [13]: -0.352
glycan array binding signal (z-score) [14]: 0.218
glycan array binding signal (z-score) [15]: 2.27
glycan array binding signal (z-score) [16]: 0.371
glycan array binding signal (z-score) [17]: 2.23
glycan array binding signal (z-score) [18]: 1.45
glycan array binding signal (z-score) [19]: -0.453
glycan array binding signal (z-score) [20]: 2.41
glycan array binding signal (z-score) [21]: 1.5
glycan array binding signal (z-score) [22]: 1.58
